According to patent US20180169183A1:
No constants are given. Whether binding was seen depends on the method and setting. Some entries that bind do so weakly or less than the wild type.

Amino acid sequences for entries named in this document (tags omitted). A change or cut given only in a name is not applied to a line headed by its entry. Residues count along the entry.
UniProt O14763: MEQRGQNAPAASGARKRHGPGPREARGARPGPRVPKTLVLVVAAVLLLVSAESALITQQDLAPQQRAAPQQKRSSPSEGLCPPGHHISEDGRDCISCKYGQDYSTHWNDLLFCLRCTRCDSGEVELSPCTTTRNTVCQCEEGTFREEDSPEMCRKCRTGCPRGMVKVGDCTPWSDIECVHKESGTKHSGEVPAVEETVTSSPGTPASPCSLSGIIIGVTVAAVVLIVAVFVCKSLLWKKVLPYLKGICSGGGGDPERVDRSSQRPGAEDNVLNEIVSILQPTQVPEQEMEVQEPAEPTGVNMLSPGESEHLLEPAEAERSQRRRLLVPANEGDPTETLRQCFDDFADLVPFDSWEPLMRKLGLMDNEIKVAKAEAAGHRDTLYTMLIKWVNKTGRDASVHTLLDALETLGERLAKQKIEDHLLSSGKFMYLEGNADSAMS
TRAIL receptor DR5 on Jurkat cells: residues 56-440 of O14763
TRAIL-receptor DR5 (on the Biacore chip): residues 56-182 of O14763
UniProt O43508: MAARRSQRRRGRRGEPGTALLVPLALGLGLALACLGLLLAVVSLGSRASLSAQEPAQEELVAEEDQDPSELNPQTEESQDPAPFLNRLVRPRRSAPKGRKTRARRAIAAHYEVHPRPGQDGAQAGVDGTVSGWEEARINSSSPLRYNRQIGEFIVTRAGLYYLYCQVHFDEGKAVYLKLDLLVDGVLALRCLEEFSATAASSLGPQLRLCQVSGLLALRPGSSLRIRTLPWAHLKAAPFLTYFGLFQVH

How the values were obtained:
[1] = molecular target: TRAIL-receptor DR5 (on the Biacore chip) (UniProt O14763); assay: Biacore, legend of FIG. 12
[2] = molecular target: TRAIL-receptor DR5 (on the Biacore chip) (UniProt O14763); assay: Biacore, title of Example 11
[3] = molecular target: TRAIL receptor DR5 on Jurkat cells (human) (UniProt O14763); assay: flow cytometry, legend of FIGS. 3A-B
[4] = molecular target: TRAIL-receptor DR5 (on the Biacore chip) (UniProt O14763); assay: Biacore, chip covered with DR5
[5] = molecular target: TRAIL receptor DR5 on Jurkat cells (human) (UniProt O14763); assay: title of Example 4 (neutralizing antibodies and flow cytometry on Jurkat cells)
[6] = molecular target: TRAIL receptor DR5 on Jurkat cells (human) (UniProt O14763); assay: flow cytometry at 4 C, loss of anti-DR5 staining on Jurkat cells

Measured: binding

TWEAK-Fn14-TRAIL complex (from UniProt O43508 94-249)
binds: all assays above
